The record followed here is publication doi:10.1101/2022.09.10.507413.

Chains of the proteins cited; added tags and fusions are not shown. Residues count along the entry.
UniProt P11276, residues 33-2477: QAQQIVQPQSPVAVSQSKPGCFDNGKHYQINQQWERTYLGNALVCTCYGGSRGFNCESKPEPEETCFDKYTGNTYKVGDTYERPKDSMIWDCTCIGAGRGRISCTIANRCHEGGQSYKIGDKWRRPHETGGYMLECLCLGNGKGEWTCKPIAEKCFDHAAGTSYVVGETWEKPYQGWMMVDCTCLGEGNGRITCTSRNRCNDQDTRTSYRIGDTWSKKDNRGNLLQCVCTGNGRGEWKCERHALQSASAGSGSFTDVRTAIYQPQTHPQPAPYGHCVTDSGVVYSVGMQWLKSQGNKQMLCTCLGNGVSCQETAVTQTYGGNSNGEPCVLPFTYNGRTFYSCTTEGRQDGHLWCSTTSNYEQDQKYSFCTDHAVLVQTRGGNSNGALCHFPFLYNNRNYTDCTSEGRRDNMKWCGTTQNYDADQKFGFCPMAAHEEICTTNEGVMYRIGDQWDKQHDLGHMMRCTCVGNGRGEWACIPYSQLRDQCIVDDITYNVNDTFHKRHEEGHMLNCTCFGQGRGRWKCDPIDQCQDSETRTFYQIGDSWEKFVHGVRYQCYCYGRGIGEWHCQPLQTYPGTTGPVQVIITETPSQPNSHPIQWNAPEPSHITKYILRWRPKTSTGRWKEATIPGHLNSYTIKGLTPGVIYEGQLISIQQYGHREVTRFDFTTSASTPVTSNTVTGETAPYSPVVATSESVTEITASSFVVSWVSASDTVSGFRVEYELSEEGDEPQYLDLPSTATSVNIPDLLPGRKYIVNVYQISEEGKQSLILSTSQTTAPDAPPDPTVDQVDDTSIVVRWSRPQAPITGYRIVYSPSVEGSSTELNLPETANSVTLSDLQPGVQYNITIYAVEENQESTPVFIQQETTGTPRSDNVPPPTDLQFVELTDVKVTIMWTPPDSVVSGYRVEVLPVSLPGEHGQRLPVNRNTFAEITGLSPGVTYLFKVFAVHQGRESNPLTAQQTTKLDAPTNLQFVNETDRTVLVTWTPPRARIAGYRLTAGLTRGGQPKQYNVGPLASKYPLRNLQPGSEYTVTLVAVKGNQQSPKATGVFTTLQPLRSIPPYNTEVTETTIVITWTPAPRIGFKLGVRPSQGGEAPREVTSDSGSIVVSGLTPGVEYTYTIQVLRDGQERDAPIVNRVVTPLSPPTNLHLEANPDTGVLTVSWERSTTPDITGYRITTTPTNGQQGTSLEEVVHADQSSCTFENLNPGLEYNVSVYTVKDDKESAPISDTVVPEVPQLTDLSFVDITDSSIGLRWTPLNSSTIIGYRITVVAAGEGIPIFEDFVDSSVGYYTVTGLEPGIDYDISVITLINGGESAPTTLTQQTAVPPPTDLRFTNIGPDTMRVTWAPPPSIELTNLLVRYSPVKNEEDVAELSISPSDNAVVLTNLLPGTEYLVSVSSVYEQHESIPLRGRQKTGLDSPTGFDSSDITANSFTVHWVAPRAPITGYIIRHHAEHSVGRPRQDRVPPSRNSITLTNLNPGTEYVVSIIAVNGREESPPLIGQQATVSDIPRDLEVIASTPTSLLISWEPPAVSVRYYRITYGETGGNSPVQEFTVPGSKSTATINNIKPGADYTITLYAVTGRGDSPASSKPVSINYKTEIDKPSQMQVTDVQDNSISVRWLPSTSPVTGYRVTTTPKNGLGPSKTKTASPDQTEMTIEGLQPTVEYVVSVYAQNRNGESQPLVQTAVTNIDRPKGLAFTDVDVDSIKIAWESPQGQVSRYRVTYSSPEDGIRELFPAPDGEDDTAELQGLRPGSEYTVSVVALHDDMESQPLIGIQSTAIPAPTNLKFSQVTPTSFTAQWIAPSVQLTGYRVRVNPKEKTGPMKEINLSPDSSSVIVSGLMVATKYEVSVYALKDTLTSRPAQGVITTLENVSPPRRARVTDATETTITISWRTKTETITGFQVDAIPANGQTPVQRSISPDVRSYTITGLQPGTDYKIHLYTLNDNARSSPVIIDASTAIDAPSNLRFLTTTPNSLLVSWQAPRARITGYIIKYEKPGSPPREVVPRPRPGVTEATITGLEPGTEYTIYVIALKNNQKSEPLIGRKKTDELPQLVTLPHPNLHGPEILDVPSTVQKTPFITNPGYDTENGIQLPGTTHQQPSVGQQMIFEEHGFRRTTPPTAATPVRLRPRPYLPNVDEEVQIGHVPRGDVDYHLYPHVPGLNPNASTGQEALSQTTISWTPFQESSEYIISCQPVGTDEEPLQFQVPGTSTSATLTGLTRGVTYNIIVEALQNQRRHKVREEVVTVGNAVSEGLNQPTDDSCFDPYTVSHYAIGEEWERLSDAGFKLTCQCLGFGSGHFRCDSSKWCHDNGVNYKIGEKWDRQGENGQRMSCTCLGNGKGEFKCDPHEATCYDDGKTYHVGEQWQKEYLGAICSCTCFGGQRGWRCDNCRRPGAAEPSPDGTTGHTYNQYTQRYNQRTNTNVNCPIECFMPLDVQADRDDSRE
UniProt Q80X90: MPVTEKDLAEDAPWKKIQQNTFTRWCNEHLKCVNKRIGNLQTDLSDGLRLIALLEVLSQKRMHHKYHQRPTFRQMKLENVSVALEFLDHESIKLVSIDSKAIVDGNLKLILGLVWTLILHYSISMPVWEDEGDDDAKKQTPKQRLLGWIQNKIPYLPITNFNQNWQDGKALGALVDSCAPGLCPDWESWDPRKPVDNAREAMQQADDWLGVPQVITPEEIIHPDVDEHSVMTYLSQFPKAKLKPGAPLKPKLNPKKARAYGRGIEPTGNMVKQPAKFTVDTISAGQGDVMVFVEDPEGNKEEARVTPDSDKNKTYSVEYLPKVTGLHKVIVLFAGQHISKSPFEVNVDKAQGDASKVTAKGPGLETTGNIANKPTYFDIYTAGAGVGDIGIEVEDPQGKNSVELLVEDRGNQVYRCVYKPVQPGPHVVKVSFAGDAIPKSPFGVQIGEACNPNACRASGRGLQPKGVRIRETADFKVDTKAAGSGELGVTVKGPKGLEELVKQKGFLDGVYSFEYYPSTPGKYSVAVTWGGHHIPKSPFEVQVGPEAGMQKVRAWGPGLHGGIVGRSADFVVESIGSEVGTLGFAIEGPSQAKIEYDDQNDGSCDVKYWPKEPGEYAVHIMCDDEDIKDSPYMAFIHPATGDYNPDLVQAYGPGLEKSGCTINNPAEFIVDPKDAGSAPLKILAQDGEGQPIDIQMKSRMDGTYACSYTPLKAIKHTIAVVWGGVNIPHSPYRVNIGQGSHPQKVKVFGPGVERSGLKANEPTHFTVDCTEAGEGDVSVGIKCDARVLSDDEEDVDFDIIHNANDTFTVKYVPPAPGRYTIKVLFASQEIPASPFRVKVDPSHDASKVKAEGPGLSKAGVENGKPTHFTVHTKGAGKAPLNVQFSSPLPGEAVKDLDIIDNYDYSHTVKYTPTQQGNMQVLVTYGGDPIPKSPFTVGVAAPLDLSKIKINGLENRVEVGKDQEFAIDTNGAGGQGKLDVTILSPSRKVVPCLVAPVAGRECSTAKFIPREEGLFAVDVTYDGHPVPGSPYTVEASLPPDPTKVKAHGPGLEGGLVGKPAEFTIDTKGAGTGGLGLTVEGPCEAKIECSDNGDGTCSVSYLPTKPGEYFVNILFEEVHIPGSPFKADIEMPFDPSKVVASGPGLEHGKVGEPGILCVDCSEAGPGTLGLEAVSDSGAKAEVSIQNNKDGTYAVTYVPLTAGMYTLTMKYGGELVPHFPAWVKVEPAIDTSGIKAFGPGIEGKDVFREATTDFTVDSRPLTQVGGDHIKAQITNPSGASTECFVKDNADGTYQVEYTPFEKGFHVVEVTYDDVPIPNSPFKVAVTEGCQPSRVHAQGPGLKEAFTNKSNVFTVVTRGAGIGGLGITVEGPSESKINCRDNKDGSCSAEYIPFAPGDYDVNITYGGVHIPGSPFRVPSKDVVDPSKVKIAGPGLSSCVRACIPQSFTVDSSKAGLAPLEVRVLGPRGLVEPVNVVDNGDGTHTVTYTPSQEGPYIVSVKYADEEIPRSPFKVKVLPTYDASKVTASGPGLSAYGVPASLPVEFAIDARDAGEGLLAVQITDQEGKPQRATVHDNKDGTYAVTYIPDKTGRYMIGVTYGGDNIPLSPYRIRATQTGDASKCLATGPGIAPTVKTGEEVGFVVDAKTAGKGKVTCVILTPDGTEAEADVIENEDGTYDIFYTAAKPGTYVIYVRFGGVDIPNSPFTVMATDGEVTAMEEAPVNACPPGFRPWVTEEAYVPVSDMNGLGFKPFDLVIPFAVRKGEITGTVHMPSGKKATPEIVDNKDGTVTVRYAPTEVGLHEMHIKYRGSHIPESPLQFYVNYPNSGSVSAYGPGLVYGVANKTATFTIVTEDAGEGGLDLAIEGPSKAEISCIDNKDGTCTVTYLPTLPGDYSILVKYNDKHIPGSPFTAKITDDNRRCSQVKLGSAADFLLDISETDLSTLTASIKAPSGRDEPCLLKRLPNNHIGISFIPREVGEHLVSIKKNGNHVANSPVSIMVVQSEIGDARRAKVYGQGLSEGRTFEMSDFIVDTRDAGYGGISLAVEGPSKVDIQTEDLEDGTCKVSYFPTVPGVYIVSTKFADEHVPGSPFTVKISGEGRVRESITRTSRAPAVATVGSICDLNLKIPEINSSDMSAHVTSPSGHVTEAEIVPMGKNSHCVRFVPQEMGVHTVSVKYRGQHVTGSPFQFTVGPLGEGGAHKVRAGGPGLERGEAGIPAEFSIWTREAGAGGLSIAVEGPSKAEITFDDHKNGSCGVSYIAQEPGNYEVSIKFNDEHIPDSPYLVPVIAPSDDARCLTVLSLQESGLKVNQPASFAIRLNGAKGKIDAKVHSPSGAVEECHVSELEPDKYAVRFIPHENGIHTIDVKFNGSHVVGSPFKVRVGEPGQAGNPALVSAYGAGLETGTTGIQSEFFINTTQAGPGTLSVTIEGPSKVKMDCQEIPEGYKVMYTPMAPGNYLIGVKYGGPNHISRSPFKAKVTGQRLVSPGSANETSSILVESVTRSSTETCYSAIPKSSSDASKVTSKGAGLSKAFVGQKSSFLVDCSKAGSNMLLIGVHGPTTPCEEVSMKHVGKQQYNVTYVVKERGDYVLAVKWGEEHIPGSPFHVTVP

The target in assay [1] is T1, 3X FLAG tagged wild-type mouse Gstt1 (doxycycline-inducible overexpression) (mouse) (UniProt Q64471).
T1 sequence: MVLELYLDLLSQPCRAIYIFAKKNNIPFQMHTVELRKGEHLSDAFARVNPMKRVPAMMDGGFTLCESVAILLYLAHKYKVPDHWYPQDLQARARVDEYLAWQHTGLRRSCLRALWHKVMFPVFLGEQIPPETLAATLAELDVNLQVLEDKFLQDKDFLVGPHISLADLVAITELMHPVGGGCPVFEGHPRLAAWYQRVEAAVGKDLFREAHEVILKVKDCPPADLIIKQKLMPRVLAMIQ
Nature of the assay: affinity purification with mass spectrometry.

Assay [2] concerns the target T2, Glutathione S-transferase theta 1 (Gstt1) (mouse (endogenous in PDAC-derived metastatic cell lines)) (UniProt Q64471).
T2 sequence: T1 sequence
Nature of the assay: affinity purification with mass spectrometry.

Results are given in words; binding and its absence hold for the method and conditions named. Binding seen in cells or lysates may run through a third protein. These calls come from enrichment with a bait or labelling near it, and not all partners need be listed. Sequences can lack the tags named with a protein.

On to “Fibronectin (from UniProt P11276 33-2477)”, for which the binding entry in assay [1] and in assay [2] was “binds” each time.

Take Filamin B (from UniProt Q80X90 1-2602): the binding result in assay [2] is reported as “binds”.
